These results are taken from PubChem BioAssay AID200 (DTP/NCI, 2004).

The list is a part of this screen's results and no random one: it gathers tests that were run many times, whatever their T/C, doses with no T/C, and many T/C values between a quarter and a half above the control. Other doses and runs of a compound stand elsewhere. T/C: endpoint of the treated group in % of that of the vehicle group. Some entries give survivors of the animals treated and no T/C: the source holds a T/C of zero for them, seemingly a mark for toxic or unscored doses. Some survivor counts are full or nearly so, which does not show that the dose was tolerated: survival well below the control is almost never listed, so the zero probably covers shortened survival too. Survivors were counted at the toxicity check, usually on the fifth day, unless a day is given; later deaths do not show. Schedule codes are those of the source, read here as Q, the interval in days (D) or hours (H), X, the number of doses. Some doses were run more than once; the values are given in rising order. Some structures stand for samples that the source files as different forms (salt, stereo form or complex); doses refer to the form tested. Marks such as (2×) count equal records among those shown. Where survival is the endpoint, this PubChem deposit counts one and a half times the control or more as active, and values a quarter to a half above the control carry no call in these data; other NCI protocols may use other cut-offs. Some T/C values are followed by the survivors on the day toxicity was checked, most often the fifth; where none is given, no animal had died by that day.

This assay deals with B6C3F1 mice, B16 melanoma ip, median survival T/C. The assay is described as follows: NCI In Vivo Anticancer Drug Screen. Data for tumor model B16 Melanoma (intraperitoneal) in B6C3F1 mice. As to conditions: T/C endpoint: median survival time, higher T/C = longer survival. In outline:
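Tumor-bearing mice received test compound; a separate group got vehicle only. Survival was then compared, with results reported as treated over control.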

[1] abbreviates: dose: 2.0 mg/kg/injection, schedule: Q01DX009 (ip), vehicle: water.
Setting [2] is: dose: 2.0 mg/kg/injection, schedule: Q01DX009 (ip), vehicle: saline.
[3] abbreviates: dose: 4.0 mg/kg/injection, schedule: Q01DX009 (ip), vehicle: saline.
[4] abbreviates: dose: 8.0 mg/kg/injection, schedule: Q01DX009 (ip), vehicle: saline.
Setting [5] is: dose: 16.0 mg/kg/injection, schedule: Q01DX009 (ip), vehicle: saline.
Setting [6] is: dose: 400.0 mg/kg/injection, schedule: Q01DX009 (ip), vehicle: Klucel (hydroxypropylcellulose) (HPC).

As for `O=C1c2c(O)ccc(O)c2C(=O)c2c(NCCNCCO)ccc(NCCNCCO)c21`, the T/C is 125 % of control (dose: 0.5 mg/kg/injection, schedule: Q01DX009 (ip), vehicle: water); 131 % of control (dose: 1.0 mg/kg/injection, schedule: Q01DX009 (sc), vehicle: acid diluted with saline); 117 and 337 % of control under setting [1]. Also, the survivor count is, setting by setting: (dose: 0.5 mg/kg/injection, schedule: Q03HX024 (ip), vehicle: acid diluted with saline) 7 of 10; (dose: 1.0 mg/kg/injection, schedule: Q03HX024 (ip), vehicle: acid diluted with saline) 9 of 10; under setting [1], 10 of 10; (dose: 2.0 mg/kg/injection, schedule: Q01DX009 (sc), vehicle: acid diluted with saline) 10 of 10; (dose: 2.0 mg/kg/injection, schedule: Q03HX024 (ip), vehicle: acid diluted with saline) 6 of 10; (dose: 2.5 mg/kg/injection, schedule: Q01DX009 (ip), vehicle: water) 10 of 10. Further, the survivor count by setting is: (dose: 4.0 mg/kg/injection, schedule: Q01DX005 (ip), vehicle: saline) 10 of 10; (dose: 4.0 mg/kg/injection, schedule: Q01DX005 (iv), vehicle: acid diluted with saline) 10 of 10; (dose: 4.0 mg/kg/injection, schedule: Q01DX005 (iv), vehicle: saline) 9 of 10; (dose: 4.0 mg/kg/injection, schedule: Q01DX009 (ip), vehicle: acid diluted with saline) 10 of 10; (dose: 4.0 mg/kg/injection, schedule: Q01DX009 (ip), vehicle: other) 10 of 10; (dose: 4.0 mg/kg/injection, schedule: Q01DX009 (ip), vehicle: water) 10 of 10 (2×). The survivor count (dose: 4.0 mg/kg/injection, schedule: Q01DX009 (sc), vehicle: acid diluted with saline) is 10 of 10; the survivor count (dose: 4.0 mg/kg/injection, schedule: Q03HX008 (ip), vehicle: acid diluted with saline) is on record as 0 of 10; the survivor count (dose: 5.0 mg/kg/injection, schedule: Q01DX009 (ip), vehicle: water) is 7 of 10 and 10 of 10; the survivor count (dose: 8.0 mg/kg/injection, schedule: Q01DX009 (ip), vehicle: water) was 10 of 10; the survivor count (dose: 8.0 mg/kg/injection, schedule: Q01DX009 (oral), vehicle: acid diluted with saline) was 8 of 10; the survivor count (dose: 10.0 mg/kg/injection, schedule: Q01DX009 (ip), vehicle: water) is given as 8 of 10. The survivor count is, setting by setting: (dose: 16.0 mg/kg/injection, schedule: Q01DX001 (iv), vehicle: acid diluted with saline) 10 of 10; (dose: 16.0 mg/kg/injection, schedule: Q01DX009 (ip), vehicle: water) 10 of 10; (dose: 16.0 mg/kg/injection, schedule: Q01DX009 (oral), vehicle: acid diluted with saline) 8 of 10; (dose: 16.0 mg/kg/injection, schedule: Q04DX003 (ip), vehicle: acid diluted with saline) 10 of 10; (dose: 18.0 mg/kg/injection, schedule: Q01DX001 (ip), vehicle: acid diluted with saline) 10 of 10; (dose: 32.0 mg/kg/injection, schedule: Q01DX001 (ip), vehicle: acid diluted with saline) 6 of 10. Also, the survivor count by setting is: (dose: 32.0 mg/kg/injection, schedule: Q01DX001 (iv), vehicle: acid diluted with saline) 6 of 10; (dose: 32.0 mg/kg/injection, schedule: Q01DX009 (ip), vehicle: water) 6 of 10; (dose: 32.0 mg/kg/injection, schedule: Q01DX009 (oral), vehicle: acid diluted with saline) 10 of 10; (dose: 36.0 mg/kg/injection, schedule: Q01DX001 (ip), vehicle: acid diluted with saline) 3 of 10 and 10 of 10; (dose: 64.0 mg/kg/injection, schedule: Q01DX001 (ip), vehicle: acid diluted with saline) 4 of 10; (dose: 64.0 mg/kg/injection, schedule: Q01DX009 (ip), vehicle: water) 2 of 10. Under “dose: 72.0 mg/kg/injection, schedule: Q01DX001 (ip), vehicle: acid diluted with saline”, the survivor count was 1 of 10 and 10 of 10.
Take `CC(C)(C)OC(=O)N1CCCC1C(=O)N1CCCC1C(=O)Oc1ccccc1` (configuration not stated): the survivor count (dose: 400.0 mg/kg/injection, schedule: Q01DX009 (ip), vehicle: saline with Tween-80) is listed as 6 of 10.
On to `OCC1OC(n2cnc3c2NC=NC[C@H]3O)CC1O` (some centres not stated), for which the survivor count is 10 of 10 (dose: 0.5 mg/kg/injection, schedule: Q01DX009 (ip), vehicle: saline); 10 of 10 (dose: 1.0 mg/kg/injection, schedule: Q01DX009 (ip), vehicle: saline); 10 of 10 under setting [2]; 10 of 10 under setting [3]; 10 of 10 under setting [4]; 10 of 10 under setting [5].
As for `C[n+]1c(-c2cccc(OCCCCCCCOc3cccc(-c4c5cc(N)ccc5c5ccc(N)cc5[n+]4C)c3)c2)c2cc(N)ccc2c2ccc(N)cc21`, the T/C is 134 % of control (dose: 0.08 mg/kg/injection, schedule: Q01DX009 (ip), vehicle: water) and 134 % of control (dose: 0.15 mg/kg/injection, schedule: Q01DX009 (ip), vehicle: water). For the same compound, the survivor count (dose: 0.3 mg/kg/injection, schedule: Q01DX009 (ip), vehicle: water) was 10 of 10.
Consider `CC1=C[C@@]23[C@H](C=C(C(=O)O)[C@@H]2COC(=O)[C@]32CO2)[C@@H]1C`, for which the survivor count is given as 4 of 10 under setting [2], 0 of 10 under setting [3], 0 of 10 under setting [4] and 0 of 10 under setting [5].
Consider `Clc1ccc(C[P+](c2ccccc2)(c2ccccc2)c2ccccc2)cc1Cl`, for which the survivor count by setting is: (dose: 25.0 mg/kg/injection, schedule: Q01DX009 (ip), vehicle: Klucel (hydroxypropylcellulose) (HPC)) 0 of 10; (dose: 50.0 mg/kg/injection, schedule: Q01DX009 (ip), vehicle: Klucel (hydroxypropylcellulose) (HPC)) 0 of 10.
For the compound `O=C1CCC(=O)N1CO`, the T/C was 133 % of control (dose: 200.0 mg/kg/injection, schedule: Q01DX009 (ip), vehicle: saline) and 137 % of control [9 of 10 alive] (dose: 400.0 mg/kg/injection, schedule: Q01DX009 (ip), vehicle: saline).
On to `CC(C)(C)Oc1ccc(CC(NC(=O)OCC2c3ccccc3-c3ccccc32)C(=O)O)cc1` (configuration not stated), for which the survivor count under setting [6] is 0 of 10.
On the same count and under the same terms, next, `Oc1c(Cl)cc(C(c2cc(Cl)c(O)c(Cl)c2)C(c2cc(Cl)c(O)c(Cl)c2)c2cc(Cl)c(O)c(Cl)c2)cc1Cl`: 4 of 10 and 8 of 10.
For `CN=C(N)N/N=C(\c1ccccc1)c1ccc(Br)cc1`, the survivor count reads like this: (dose: 25.0 mg/kg/injection, schedule: Q01DX009 (ip), vehicle: saline with Tween-80) 10 of 10; (dose: 50.0 mg/kg/injection, schedule: Q01DX009 (ip), vehicle: saline with Tween-80) 7 of 10.
As to `COc1cccc2c1C(=O)c1c(O)c3c(c(O)c1C2=O)C[C@H](O)C[C@@H]3OC1CC(N)C(O)C(C)O1` (some centres not stated), where the note is “dose: 24.0 mg/kg/injection, schedule: Q01DX009 (ip), vehicle: water”, the survivor count is recorded as 10 of 10.
Turning to `COc1cccc2c1C(=O)c1c(O)c3c(c(O)c1C2=O)C[C@@](O)(C(=O)CO)C[C@@H]3OC1CC(N2CCOCC2C#N)C(O)C(C)O1` (some centres not stated), the survivor count (dose: 75.0 micrograms/kg/injection, schedule: Q01DX001 (ip), vehicle: water) was 3 of 10 and the survivor count (dose: 150.0 micrograms/kg/injection, schedule: Q01DX001 (ip), vehicle: water) is reported as 0 of 10.
Turning to `Nc1nc2c(C(=O)N3CCCC3)nnn2c2ccccc12`, the survivor count (dose: 200.0 mg/kg/injection, schedule: Q01DX009 (ip), vehicle: saline with Tween-80) was 0 of 10.
Regarding `CCC(C)C(NC(=O)OCC1c2ccccc2-c2ccccc21)C(=O)O` (configuration not stated), the survivor count under setting [6] was 1 of 10 and 7 of 10.
As for `CC(C)C(NC(=O)OCC1c2ccccc2-c2ccccc21)C(=O)O` (configuration not stated), under setting [6], the survivor count was 5 of 10.
